IC50 data for one compound are collected here from ChEMBL document CHEMBL1141467, “Multi-target-directed ligands to combat neurodegenerative diseases” (J Med Chem, 2008).

Chains of the proteins cited; added tags and fusions are not shown. Lines headed by an entry give the natural chain unless they say otherwise; changes in a name come on top.
UniProt P22303: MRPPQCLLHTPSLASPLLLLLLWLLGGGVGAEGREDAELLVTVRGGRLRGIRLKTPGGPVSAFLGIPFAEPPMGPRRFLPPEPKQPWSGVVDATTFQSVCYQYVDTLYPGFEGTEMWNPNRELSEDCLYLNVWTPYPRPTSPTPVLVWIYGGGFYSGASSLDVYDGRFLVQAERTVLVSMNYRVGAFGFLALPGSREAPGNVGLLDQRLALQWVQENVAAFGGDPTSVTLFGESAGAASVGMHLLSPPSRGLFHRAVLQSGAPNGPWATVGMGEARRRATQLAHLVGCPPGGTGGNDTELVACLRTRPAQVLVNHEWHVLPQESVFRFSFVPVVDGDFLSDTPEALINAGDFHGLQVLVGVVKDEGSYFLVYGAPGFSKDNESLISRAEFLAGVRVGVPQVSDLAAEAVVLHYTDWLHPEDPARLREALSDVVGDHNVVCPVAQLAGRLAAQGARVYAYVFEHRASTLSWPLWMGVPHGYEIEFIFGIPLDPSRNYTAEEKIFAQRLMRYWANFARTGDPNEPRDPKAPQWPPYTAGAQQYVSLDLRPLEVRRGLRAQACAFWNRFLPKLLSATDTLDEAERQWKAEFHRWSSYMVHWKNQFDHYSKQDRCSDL

pIC50: −log10 of the molar value.

This assay deals with Acetylcholinesterase (Homo sapiens, UniProt P22303).

`Cc1c(C)c2ccc(OCc3cccc(Cl)c3)cc2oc1=O` gave a pIC50 of 5.47.
